Among the data in paper doi:10.1101/2020.02.12.945162 are binding values, retold here.

No constants are given. Whether binding was seen depends on the method and setting. Binding calls can cover weak binding; strength is not graded here. Sequences can lack the tags named with a protein.

In the experiment the target is T1, GST-tagged Frizzled6 C-terminal domain (GST-Frizzled6^497-567) (UniProt O60353).
T1 sequence: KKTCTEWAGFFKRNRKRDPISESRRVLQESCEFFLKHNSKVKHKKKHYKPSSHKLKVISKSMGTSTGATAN
The experiment can be described thus: pull-down.

For the substance “FLAG-tagged C-terminal unfolded domain of epsinR (epsinR^ΔENTH-FLAG) (domain or fragment)”, the binding result is recorded as “binds”.
